Our source for the binding values is paper PMC5430443.

Amino acid sequences for entries named in this document (tags omitted). A change or cut given only in a name is not applied to a line headed by its entry.
UniProt Q8ND56: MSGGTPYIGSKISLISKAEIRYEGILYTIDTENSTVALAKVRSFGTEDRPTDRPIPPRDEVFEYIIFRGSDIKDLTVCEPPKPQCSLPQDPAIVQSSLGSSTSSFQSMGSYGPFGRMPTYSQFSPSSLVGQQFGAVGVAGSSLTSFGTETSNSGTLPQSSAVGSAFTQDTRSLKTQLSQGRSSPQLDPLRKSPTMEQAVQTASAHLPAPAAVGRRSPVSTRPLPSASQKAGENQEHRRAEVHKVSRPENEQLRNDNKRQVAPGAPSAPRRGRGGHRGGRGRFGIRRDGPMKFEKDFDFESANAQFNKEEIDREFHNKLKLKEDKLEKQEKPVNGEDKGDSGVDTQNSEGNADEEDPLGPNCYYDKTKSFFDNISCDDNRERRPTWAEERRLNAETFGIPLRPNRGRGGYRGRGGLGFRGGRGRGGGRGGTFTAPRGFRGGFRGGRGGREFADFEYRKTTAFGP

For experiment [1], the target named is GST-FMRP-1-200 F32L (human) (UniProt Q06787). The experiment is described as follows: pull-down; 20 ug GST-tagged protein pre-coupled to glutathione Sepharose 4B, lysate of HEK293T cells (endogenous proteins or Flag-tagged proteins 36 h after transfection; 100 mM NaCl, 20 mM Tris-HCl pH 7.4, 5 mM MgCl2, 0.5% Igepal CA-630), 4 h at 4 C, with or without RNase A 0.5 mg/ml; immunoblotting; only the target purified.

Experiment [2] addresses GST-FMRP-1-200 Y96L (human) (UniProt Q06787). The description is as above.

These are yes or no findings as the source states them, for the method shown. In cells and extracts the contact can be indirect. Some binding calls cover weakened binding; strength is not graded here.

With “Flag-LSM14A (from UniProt Q8ND56-1 1-463)”, the binding entry in experiment [1] and in experiment [2] was “binds” in each case.

Take Flag-PLK1 (from UniProt P53350 1-603): the binding entry in experiment [1] and in experiment [2] was “binds” in each case.

On to “LSM14A (endogenous) (from UniProt Q8ND56 1-463)”, for which the binding result in experiment [1] and in experiment [2] was “binds” throughout.
